Chains of the proteins cited; added tags and fusions are not shown. Residues count along the entry.
UniProt Q8VI67, 27-428: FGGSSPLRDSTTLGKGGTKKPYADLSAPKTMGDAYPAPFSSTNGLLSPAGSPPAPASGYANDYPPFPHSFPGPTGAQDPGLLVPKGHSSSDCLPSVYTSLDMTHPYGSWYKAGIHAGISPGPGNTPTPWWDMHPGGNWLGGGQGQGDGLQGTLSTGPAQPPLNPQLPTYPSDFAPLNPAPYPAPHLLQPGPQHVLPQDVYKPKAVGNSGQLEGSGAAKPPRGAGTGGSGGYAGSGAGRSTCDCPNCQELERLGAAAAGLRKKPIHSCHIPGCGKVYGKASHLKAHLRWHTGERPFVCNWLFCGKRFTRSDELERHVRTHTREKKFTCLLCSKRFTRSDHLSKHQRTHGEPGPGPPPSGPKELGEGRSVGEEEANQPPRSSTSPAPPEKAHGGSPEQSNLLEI

In patent publication US20020156031:

Molecular target: Osterix (Osx) (Mus musculus) (UniProt Q8VI67)
Assay: EMSA
Details: protein in a lysate after overexpression, label: 32P

“ATTCGATCGGGGCGGGGCGAGC (double strand) [Sp1 consensus oligo]”: binds (dose dependent with extract, blocked by anti-C-terminal Osterix antibody, restored by peptide, room temp 20 min, gel at 4 C).

“CGTAGAGCCACACCCTGAAGG (double strand) [EKLF consensus oligo]”: binds (bound efficiently).

“GCTCGGGGGCGGGGTCTCAGGTTA (double strand) [Col2a1 (printed Co12a1)]”: binds (bound efficiently).

Results from cells or extracts need not show a direct contact.
